# Article PMC7815719
# The chains behind the UniProt entries cited, without tags or fusion partners. Residues count along the entry.
# UniProt P01375, residues 77-233: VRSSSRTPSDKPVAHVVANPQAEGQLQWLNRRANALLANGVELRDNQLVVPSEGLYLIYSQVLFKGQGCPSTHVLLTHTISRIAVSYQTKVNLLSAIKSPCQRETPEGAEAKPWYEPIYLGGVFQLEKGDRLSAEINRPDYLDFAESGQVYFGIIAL
# UniProt P49137: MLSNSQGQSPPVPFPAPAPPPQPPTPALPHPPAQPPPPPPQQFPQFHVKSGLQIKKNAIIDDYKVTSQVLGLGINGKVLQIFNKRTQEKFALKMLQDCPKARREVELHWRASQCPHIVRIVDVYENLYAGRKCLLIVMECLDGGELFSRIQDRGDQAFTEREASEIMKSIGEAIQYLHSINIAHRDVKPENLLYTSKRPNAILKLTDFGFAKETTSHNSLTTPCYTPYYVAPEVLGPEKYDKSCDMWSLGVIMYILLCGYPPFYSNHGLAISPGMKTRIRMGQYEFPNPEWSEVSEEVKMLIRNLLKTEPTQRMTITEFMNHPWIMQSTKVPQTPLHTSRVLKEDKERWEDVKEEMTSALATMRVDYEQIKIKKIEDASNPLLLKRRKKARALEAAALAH
# These are yes or no findings as the source states them, for the method shown. Binding seen in cells or lysates may run through a third protein.
# Target: GST-hTNF (residues 77-233) (human) (UniProt P01375)
# Assay: pull-down; WT and MIB2 KO HeLa cells (similar in HCT116) stimulated with GST-TNF (1 μg/ml), with or without BV6 (0.1 μM); lysed in IP buffer; TNFR-containing complex I precipitated with glutathione-Sepharose overnight at 4 °C; immunoblot; only the target purified
substance,measurement,value
endogenous MK2 (from UniProt P49137 1-400) (enzyme),binding,no binding
